Measured values published in PubChem BioAssay AID743255 (National Center for Advancing Translational Sciences (NCATS), 2014).
The whole screen tested about 390,000 compounds, of which about 910 (0.23%) were called active. Inconclusive means that the source gave no clear call. Such entries were picked first, then a sample of the others. The call rests on the fitted dose curve; in most records, active means well fitted inhibition curve with a large enough effect; inconclusive means small, poorly fitted or top-dose-only effect; inactive means no such curve, though single readings can be large or run the other way. Potencies of inconclusive entries are doubtful fits and often do not repeat.

Amino acid sequences for entries named in this document (tags omitted). A change or cut given only in a name is not applied to a line headed by its entry.
UniProt O94782: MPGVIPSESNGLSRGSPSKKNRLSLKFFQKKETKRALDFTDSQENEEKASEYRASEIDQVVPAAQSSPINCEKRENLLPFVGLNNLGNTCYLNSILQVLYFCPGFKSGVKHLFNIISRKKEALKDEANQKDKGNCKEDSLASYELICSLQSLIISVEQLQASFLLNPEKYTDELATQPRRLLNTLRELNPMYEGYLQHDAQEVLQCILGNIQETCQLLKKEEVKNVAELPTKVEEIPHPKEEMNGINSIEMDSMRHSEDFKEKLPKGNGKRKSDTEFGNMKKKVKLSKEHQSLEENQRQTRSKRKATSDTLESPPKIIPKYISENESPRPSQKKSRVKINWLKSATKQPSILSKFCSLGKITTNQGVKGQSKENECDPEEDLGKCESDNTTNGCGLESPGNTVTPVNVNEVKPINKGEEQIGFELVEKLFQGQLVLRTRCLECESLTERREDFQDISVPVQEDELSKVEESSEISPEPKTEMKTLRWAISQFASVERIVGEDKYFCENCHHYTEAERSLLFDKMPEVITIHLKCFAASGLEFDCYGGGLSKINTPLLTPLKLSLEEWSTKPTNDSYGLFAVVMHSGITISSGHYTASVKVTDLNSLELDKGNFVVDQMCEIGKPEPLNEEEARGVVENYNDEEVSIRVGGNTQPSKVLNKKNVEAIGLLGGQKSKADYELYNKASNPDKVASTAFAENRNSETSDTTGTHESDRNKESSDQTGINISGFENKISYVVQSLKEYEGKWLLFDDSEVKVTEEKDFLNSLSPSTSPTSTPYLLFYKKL

biological target: Ubiquitin carboxyl-terminal hydrolase 1 (Homo sapiens) (UniProt O94782); assay: Inhibitors of USP1/UAF1: Primary Screen; settings: recombinant USP1/UAF1, Ub-Rhodamine cleavage fluorescence; activity change, negative = inhibition: at 57.1 µM (top of the series); further: nearly all actives have a fitted effect of over 60% in size
Method in brief: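 1 nM enzyme complex + cpd, 15 min RT; start with Ub-Rho 150nM final; kinetic fluorescence ex 480/em 540, 6 reads q60 s. Buffer 50mM HEPES pH 7.8, 0.5mM EDTA, 0.1 mg/ml BSA, 1mM TCEP, 0.01% Tween-20.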
On the % scale 0 is the no-effect control and ±100 the full control effect; potency means the concentration at half of the fitted maximal effect.

| Compound | activity change, negative = inhibition | Potency |
| --- | --- | --- |
| CCc1ccc(NCc2cc3ccc(OC)cc3n(CC(=O)Nc3ccc(C)c(Cl)c3)c2=O)cc1 | inconclusive: -34% [inhibitor] |  |
| COc1ccc(CNC(=O)CN(C(=O)c2csnn2)c2ccccc2F)cc1 |  | inconclusive: 35.5 µM [inhibitor, single point] |
| Cn1c(N)c(-c2ccccc2)c2ccc([N+](=O)[O-])cc2c1=O |  | inconclusive: 28.2 µM [inhibitor, partial curve] |
| N#Cc1c(NC(=S)NC(=O)C2CCCC2)sc2c1CCCCC2 |  | inactive |
| O=C1N(Cc2ccccc2)c2ccccc2C1(O)c1c[nH]c2ccccc12 (centres undefined) |  | inconclusive: 141 µM [inhibitor, partial curve, poor fit] |
| O=C(Nc1cccnc1)Nc1ccc(Br)cc1Cl |  | inactive |
| O=C(O)C1C2C=CC(O2)C1C(=O)Nc1cccc(C(F)(F)F)c1 (centres undefined) |  | inconclusive: 7.94 µM [inhibitor, full curve, poor fit] |
| S=c1[nH]cnc2scc(-c3ccc(Cl)cc3)c12 |  | inactive |
| Cc1ccc(CSc2nc(-c3ccccc3C)nc3c2Cc2c(CO)cnc(C)c2O3)cc1 |  | inconclusive: 44.7 µM [inhibitor, partial curve, poor fit] |
| COC(=O)[C@H](Cc1ccccc1)NC(=O)[C@@H]1C[C@H]1[C@@H](NC(=O)OCc1ccccc1)c1ccccc1 |  | inconclusive: 50.1 µM [inhibitor, partial curve, poor fit] |
| CCCCn1c(=N)n(CCOc2ccccc2OC)c2ccccc21 |  | inactive |
| CC(C)c1ccc(CNc2n[nH]c(-c3ccco3)n2)cc1 |  | inconclusive: 7.94 µM [inhibitor, single point] |
| COc1ccc2cc(C(=O)C3CCCN(Cc4cccc(C)n4)C3)ccc2c1 (centres undefined) |  | inactive |
| CC1(C)CC(=O)C=C(CN2C(=O)c3ccccc3C2=O)C1=O |  | inconclusive: 7.94 µM [inhibitor, partial curve, poor fit] |
| C[C@@H]1CN([C@H](C)CO)C(=O)Cc2cc(NC(=O)Cn3cnnn3)ccc2O[C@@H]1CN(C)Cc1ccc(Cl)c(Cl)c1 |  | inconclusive: 39.8 µM [inhibitor, single point] |
| O=Nc1c(O)ccc2cc(S(=O)(=O)O)ccc12 |  | inconclusive: 31.6 µM [inhibitor, partial curve] |
| COc1ccc(/C=N/Nc2ncnc3c2[nH]c2ccc(C)cc23)c(OC)c1OC |  | inconclusive: 11.2 µM [inhibitor, partial curve] |
| COc1ccccc1N(C)S(=O)(=O)c1ccc(C(=O)Nc2ccc3nc(C)sc3c2)cc1 |  | inactive |
| O=C(CSc1nc(-c2ccco2)cc(C(F)(F)F)n1)N1CCN(Cc2ccccc2)CC1 |  | inconclusive: 0.794 µM [inhibitor, full curve, poor fit] |
| Cc1ccc(C)c(NC(=O)C2C(c3ccccc3)C2(Cl)Cl)c1 (centres undefined) |  | inconclusive: 31.6 µM [inhibitor, single point] |
| CC(=O)N1CCc2cc(S(=O)(=O)NC(Cc3ccccc3)C(=O)Nc3cc(C)ccc3C)ccc21 (centres undefined) |  | inactive |
| C=C(C)C(=O)Nc1cccnc1Oc1ccc(F)cc1 |  | inconclusive: 4.47 µM [inhibitor, full curve] |

Individual results from the results shown:
`CC(=O)N1CCc2cc(S(=O)(=O)NC(Cc3ccccc3)C(=O)Nc3cc(C)ccc3C)ccc21` (centres undefined) – Potency: inactive
`CCc1ccc(NCc2cc3ccc(OC)cc3n(CC(=O)Nc3ccc(C)c(Cl)c3)c2=O)cc1` – activity change, negative = inhibition: inconclusive: -34% [inhibitor]
`Cn1c(N)c(-c2ccccc2)c2ccc([N+](=O)[O-])cc2c1=O` – Potency: inconclusive: 28.2 µM [inhibitor, partial curve]
`C[C@@H]1CN([C@H](C)CO)C(=O)Cc2cc(NC(=O)Cn3cnnn3)ccc2O[C@@H]1CN(C)Cc1ccc(Cl)c(Cl)c1` – Potency: inconclusive: 39.8 µM [inhibitor, single point]

Next results.

| Compound | activity change, negative = inhibition | Potency |
| --- | --- | --- |
| O=C(Nc1ccccc1Br)c1cccc2ccccc12 |  | inconclusive: 44.7 µM [inhibitor, partial curve] |
| CC1(c2ccc(OC(F)F)cc2)NC(=O)N(CC(=O)Nc2cccc(F)c2)C1=O (centres undefined) |  | inconclusive: 4.47 µM [inhibitor, single point] |
| COc1ccc(Cl)cc1N(C(=O)c1ccco1)C(C(=O)NC1CCCC1)c1ccco1 (centres undefined) |  | inconclusive: 35.5 µM [inhibitor, partial curve, poor fit] |
| COc1cc(/C=C2/SC(=S)NC2=O)ccc1OS(=O)(=O)c1ccc(C)cc1 |  | inconclusive: 35.5 µM [inhibitor, partial curve] |
| CCN1C(=O)[C@@H]2[C@@H](c3ccc(-c4cccc(Cl)c4)c(OC)c3)N3CCCC[C@@]3(C(=O)OC)[C@@H]2C1=O |  | inconclusive: 56.2 µM [inhibitor, partial curve, poor fit] |
| CCC(=O)OC1(C)C(=O)C=C2C=C(c3ccsc3)OC=C2C1=O (centres undefined) |  | inconclusive: 35.5 µM [inhibitor, single point] |
| Cn1c(=O)c2c(nc(Br)n2Cc2ccccc2Cl)n(C)c1=O |  | inactive |
| CCOC(=O)c1[nH]c2ccccc2c1NC(=S)Nc1cccc(C)c1 |  | inconclusive: 35.5 µM [inhibitor, single point] |
| CC1=Nc2cc(C(=O)N3CCC(C)CC3)ccc2Sc2ccc(Cl)cc21 |  | inconclusive: 5.62 µM [inhibitor, full curve, poor fit] |
| CCOc1ccc(OCCOCCN2CCc3ccccc3C2)cc1 |  | inconclusive: 50.1 µM [inhibitor, partial curve, poor fit] |
| Cn1cc(S(=O)(=O)N2CCCCCC2)cc1C(=O)Nc1ccc(Cl)c(C(F)(F)F)c1 |  | inactive |
| CCc1cccc(C)c1NC(=O)Cn1nnc(-c2nc(-c3ccccc3F)no2)c1N |  | inactive |
| CCN(CC)C(=O)CSc1nc2ccc(NC(=O)CSc3nccn3C)cc2s1 |  | inconclusive: 0.708 µM [inhibitor, full curve, poor fit] |
| COCCn1c(C)cc(C(=O)COC(=O)c2ccc([N+](=O)[O-])o2)c1C |  | inconclusive: 56.2 µM [inhibitor, partial curve, poor fit] |
| c1ccc(COc2cccc(CNCc3cccnc3)c2)cc1 |  | inactive |
| COC1C(CO)OC(n2c3c(Cl)cccc3c3c4c(c5c6cccc(Cl)c6[nH]c5c32)C(=O)NC4=O)C(O)C1O (centres undefined) |  | inconclusive: 35.5 µM [inhibitor, partial curve, poor fit] |
| CN(C)c1cccc2c(S(=O)(=O)N3CCOCC3)cccc12 |  | inactive |
| CCCCCn1c(CCNC(=O)c2cccc(C)c2)nc2ccccc21 |  | inconclusive: 0.355 µM [inhibitor, full curve, poor fit] |
| Brc1cccc(-c2nnc(-c3ccccc3)o2)c1 |  | inactive |
| Cc1ccc(C)c(C(=O)COC(=O)CCN2C(=O)C3C4CCC(C4)C3C2=O)c1 (centres undefined) |  | inactive |
| Cc1cccc(NC(=O)c2sc3nc(N)c(C#N)cc3c2N)c1 |  | inactive |
| O[C@H]1CN(Cc2cccs2)[C@@H](c2ccccc2)C[C@@H]1n1cc(-c2ccc(F)cc2)nn1 |  | inconclusive: 44.7 µM [inhibitor, partial curve, poor fit] |

| Compound | activity change, negative = inhibition | Potency |
| --- | --- | --- |
| CC(=O)N1CCc2c(sc3c2c(=O)n(Cc2ccccc2)c(=O)n3Cc2cc(C)ccc2C)C1 |  | inconclusive: 8.91 µM [inhibitor, full curve, poor fit] |
| Cc1ccc2c(c1)C1C=CCC1C(C(=O)NCCCN1CCOCC1)N2 (centres undefined) |  | inconclusive: 12.6 µM [inhibitor, partial curve] |
| CC(=Nc1cccc(C)c1)c1sc2ccccc2c1O |  | inconclusive: 35.5 µM [inhibitor, partial curve, poor fit] |
| CCCCC[C@@H]1C=C(C(=O)O)[C@H](c2ccc(C#N)cc2)N1S(=O)(=O)c1ccc(C)cc1 |  | inconclusive: 8.91 µM [inhibitor, partial curve] |
| CCCOc1ccc(N)cc1N |  | inconclusive: 1.26 µM [inhibitor, full curve, poor fit] |
| Cc1ccc(NC(=O)c2nc[nH]c2C(=O)N[C@H](C)c2ccccc2)cc1 |  | inconclusive: 44.7 µM [inhibitor, partial curve, poor fit] |
| Nc1c2ccccc2nc2ccccc12 |  | inconclusive: 39.8 µM [inhibitor, partial curve] |
| N#CCc1ccc(Oc2ccc([N+](=O)[O-])cn2)cc1 |  | inconclusive: 4.47 µM [inhibitor, partial curve] |
| Cc1ccc(S(=O)(=O)N2[C@@H](c3cccc(Cl)c3)C(C(=O)O)=CC[C@H]2c2ccc(C(C)C)cc2)cc1 |  | inconclusive: 14.1 µM [inhibitor, partial curve] |
| Cc1nonc1CC(=O)NC1CCCc2c1cnn2-c1ccc(F)cc1F (centres undefined) |  | inconclusive: 89.1 µM [inhibitor, partial curve, poor fit] |
| Cc1ccc(NC(=O)Cn2cc(C(=O)C3CC3)c3ccccc32)cc1C |  | inactive |
| COc1ccc(C2=NOC(C(=O)Nc3cc(Br)ccc3O)C2)cc1OC (centres undefined) |  | inactive |
| Cc1cc(C)n(-c2nc(C)c(C)c(=O)n2CC(=O)Nc2ccc(OC(F)(F)F)cc2)n1 |  | inconclusive: 8.91 µM [inhibitor, full curve, poor fit] |
| COc1ccc(C2=CN(Cc3ccccc3)CCC2=O)cc1 |  | inconclusive: 0.251 µM [inhibitor, full curve, poor fit] |
| CCCN(CC(=O)Nc1ccc(NC(C)=O)cc1)CC(=O)Nc1ccc(F)c(F)c1F |  | inconclusive: 0.282 µM [inhibitor, full curve, poor fit] |
| FC(F)Oc1ccc(NC(=S)NCCc2ccccn2)cc1 |  | inconclusive: 7.94 µM [inhibitor, partial curve, poor fit] |
| CCC(Cc1ccccc1)NC(=O)c1cc(S(=O)(=O)N2CCCCC2)c[nH]1 (centres undefined) |  | inconclusive: 11.2 µM [inhibitor, full curve] |
| CCOC(=O)c1ccc(NC(=O)Cn2nc(C)c3ccccc3c2=O)cc1 |  | inconclusive: 0.891 µM [inhibitor, full curve] |
| CC1=CC2=NC(=O)/C(=C\c3ccc(-c4cccc(Cl)c4)o3)C(=N)N2O1 |  | inconclusive: 28.2 µM [inhibitor, partial curve] |
| C[C@H]1CN([C@@H](C)CO)C(=O)Cc2cc(NS(C)(=O)=O)ccc2O[C@@H]1CN(C)CC1CC1 |  | inconclusive: 7.94 µM [inhibitor, partial curve, poor fit] |
